Measurements reported in the supplement of paper PMC10849652.
The list shows a part of the results.

Chains of the proteins cited; added tags and fusions are not shown. Lines headed by an entry give the natural chain unless they say otherwise; changes in a name come on top.
UniProt Q659A1: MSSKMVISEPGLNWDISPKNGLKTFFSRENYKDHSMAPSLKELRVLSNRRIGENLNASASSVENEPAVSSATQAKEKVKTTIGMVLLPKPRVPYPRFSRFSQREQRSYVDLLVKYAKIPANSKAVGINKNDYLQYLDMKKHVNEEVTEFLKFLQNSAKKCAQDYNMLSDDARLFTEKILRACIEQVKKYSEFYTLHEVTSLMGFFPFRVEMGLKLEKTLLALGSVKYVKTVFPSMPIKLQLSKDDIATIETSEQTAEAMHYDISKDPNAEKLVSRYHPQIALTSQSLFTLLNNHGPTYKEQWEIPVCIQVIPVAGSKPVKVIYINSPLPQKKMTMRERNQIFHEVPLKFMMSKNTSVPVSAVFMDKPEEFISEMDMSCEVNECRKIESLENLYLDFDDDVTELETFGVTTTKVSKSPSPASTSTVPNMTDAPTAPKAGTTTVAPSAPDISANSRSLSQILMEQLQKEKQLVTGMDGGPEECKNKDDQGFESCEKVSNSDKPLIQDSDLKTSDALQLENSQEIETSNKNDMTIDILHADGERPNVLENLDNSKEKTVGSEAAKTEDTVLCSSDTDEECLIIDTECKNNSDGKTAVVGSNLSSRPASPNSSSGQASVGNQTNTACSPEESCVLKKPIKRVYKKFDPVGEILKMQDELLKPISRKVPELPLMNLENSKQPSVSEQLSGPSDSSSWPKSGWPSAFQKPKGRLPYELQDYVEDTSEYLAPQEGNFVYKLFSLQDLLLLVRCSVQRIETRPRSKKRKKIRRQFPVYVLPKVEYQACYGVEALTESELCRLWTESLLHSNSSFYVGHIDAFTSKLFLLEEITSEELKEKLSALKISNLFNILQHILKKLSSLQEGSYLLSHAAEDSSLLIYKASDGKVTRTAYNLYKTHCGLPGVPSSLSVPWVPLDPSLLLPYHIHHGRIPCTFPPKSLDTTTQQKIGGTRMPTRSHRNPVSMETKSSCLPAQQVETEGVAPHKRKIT
UniProt P82970: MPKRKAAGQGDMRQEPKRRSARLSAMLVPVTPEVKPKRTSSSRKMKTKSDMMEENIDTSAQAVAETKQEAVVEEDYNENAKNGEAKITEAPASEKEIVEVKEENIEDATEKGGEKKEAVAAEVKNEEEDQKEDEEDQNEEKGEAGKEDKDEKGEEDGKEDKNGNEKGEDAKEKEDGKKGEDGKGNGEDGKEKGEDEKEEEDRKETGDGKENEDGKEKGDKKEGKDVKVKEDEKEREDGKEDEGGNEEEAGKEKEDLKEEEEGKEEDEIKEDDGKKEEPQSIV
UniProt P04035: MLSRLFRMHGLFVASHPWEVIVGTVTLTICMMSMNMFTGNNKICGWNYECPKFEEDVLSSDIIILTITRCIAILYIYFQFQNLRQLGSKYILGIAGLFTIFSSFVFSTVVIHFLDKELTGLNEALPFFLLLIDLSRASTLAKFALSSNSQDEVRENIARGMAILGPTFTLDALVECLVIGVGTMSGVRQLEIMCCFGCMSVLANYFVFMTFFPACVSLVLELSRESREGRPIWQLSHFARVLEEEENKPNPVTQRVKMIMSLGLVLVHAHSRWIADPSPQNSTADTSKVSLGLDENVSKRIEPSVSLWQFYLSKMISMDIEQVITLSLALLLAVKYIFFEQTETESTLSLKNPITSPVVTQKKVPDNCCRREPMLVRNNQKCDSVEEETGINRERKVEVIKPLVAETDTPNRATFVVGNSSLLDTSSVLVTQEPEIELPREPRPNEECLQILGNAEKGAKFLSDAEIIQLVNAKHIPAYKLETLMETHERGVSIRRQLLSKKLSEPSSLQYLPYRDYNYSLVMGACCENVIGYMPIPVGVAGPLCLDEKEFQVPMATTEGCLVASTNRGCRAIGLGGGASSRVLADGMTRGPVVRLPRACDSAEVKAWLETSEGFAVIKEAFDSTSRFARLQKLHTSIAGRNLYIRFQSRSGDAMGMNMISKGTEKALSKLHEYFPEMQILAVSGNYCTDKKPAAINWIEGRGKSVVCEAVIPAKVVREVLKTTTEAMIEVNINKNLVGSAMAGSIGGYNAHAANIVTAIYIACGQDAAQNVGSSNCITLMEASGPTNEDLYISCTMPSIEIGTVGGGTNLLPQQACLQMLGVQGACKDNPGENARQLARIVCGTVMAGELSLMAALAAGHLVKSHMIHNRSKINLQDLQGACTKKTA
UniProt P30519: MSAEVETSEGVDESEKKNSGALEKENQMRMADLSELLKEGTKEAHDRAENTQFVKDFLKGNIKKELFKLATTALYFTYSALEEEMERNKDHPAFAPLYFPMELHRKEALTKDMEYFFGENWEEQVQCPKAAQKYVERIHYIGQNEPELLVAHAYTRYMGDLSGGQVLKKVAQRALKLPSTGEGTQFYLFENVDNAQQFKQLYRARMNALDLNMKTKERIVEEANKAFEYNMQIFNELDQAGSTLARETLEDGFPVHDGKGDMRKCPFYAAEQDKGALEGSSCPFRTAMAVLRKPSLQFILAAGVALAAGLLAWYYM
UniProt Q8WVV9: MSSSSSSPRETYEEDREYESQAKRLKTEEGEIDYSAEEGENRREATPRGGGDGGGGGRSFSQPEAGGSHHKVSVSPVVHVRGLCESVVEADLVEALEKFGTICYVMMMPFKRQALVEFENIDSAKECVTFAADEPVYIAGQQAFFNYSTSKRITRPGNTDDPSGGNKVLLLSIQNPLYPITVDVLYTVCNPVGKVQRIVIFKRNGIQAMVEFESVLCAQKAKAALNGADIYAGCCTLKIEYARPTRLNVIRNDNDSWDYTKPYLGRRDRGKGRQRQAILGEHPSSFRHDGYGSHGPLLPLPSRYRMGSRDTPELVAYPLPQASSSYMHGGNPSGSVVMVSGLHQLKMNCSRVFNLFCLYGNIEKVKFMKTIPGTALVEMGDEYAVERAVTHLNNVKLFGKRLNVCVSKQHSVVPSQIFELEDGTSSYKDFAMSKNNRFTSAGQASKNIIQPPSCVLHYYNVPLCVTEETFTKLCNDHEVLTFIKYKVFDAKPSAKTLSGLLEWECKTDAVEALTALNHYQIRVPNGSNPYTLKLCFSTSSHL
UniProt P10809, whole entry, looked up: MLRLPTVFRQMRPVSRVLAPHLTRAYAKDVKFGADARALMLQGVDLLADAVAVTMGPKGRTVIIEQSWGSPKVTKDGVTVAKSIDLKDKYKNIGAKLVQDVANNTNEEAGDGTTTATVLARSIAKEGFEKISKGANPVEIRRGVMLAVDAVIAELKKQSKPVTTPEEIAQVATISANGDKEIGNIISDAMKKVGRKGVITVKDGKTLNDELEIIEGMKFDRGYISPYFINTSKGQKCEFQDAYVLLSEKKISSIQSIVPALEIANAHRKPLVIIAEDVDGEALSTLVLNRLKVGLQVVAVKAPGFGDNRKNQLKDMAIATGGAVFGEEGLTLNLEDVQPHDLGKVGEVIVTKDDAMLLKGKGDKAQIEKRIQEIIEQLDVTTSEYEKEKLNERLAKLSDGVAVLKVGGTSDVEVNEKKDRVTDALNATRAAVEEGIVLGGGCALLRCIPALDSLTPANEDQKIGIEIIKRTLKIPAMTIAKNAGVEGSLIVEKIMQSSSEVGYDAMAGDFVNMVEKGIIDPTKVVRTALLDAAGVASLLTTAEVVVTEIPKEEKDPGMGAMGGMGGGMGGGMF
UniProt Q53T59: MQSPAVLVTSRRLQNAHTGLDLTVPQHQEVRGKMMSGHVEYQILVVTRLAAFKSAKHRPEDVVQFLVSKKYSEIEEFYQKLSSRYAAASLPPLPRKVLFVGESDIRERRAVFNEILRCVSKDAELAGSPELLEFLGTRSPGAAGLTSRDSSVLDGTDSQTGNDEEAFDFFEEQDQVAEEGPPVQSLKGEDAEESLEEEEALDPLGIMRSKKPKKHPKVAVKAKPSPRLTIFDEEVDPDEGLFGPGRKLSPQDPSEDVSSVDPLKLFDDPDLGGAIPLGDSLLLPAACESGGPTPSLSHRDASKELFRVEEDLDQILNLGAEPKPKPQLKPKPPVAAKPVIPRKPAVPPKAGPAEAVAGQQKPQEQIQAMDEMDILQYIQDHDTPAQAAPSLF
UniProt O15347: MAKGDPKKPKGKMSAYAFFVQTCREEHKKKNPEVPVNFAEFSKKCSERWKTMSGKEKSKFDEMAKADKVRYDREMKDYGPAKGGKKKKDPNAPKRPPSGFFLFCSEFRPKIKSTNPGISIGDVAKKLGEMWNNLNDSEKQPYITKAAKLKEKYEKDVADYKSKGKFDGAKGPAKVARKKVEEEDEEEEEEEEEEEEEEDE
UniProt Q96JB3: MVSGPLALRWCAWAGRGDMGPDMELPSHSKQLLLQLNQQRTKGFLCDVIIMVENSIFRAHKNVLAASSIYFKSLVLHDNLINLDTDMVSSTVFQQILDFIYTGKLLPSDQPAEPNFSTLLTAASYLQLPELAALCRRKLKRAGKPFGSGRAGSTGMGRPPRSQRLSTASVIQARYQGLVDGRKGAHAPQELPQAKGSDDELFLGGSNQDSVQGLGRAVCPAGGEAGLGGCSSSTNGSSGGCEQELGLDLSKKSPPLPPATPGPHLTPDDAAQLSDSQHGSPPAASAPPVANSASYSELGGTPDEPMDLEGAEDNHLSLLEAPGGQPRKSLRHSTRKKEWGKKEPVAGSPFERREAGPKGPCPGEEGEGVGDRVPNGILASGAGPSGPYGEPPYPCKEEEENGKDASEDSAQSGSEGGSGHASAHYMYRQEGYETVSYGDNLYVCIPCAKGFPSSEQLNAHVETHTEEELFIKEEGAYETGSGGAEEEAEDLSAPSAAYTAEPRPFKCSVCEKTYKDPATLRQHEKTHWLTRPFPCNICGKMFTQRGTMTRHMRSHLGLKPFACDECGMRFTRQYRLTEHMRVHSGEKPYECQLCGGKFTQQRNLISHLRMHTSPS
UniProt P17096: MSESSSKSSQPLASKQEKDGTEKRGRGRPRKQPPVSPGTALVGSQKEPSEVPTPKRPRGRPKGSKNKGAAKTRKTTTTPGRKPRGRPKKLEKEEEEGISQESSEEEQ
UniProt P34931, whole entry, looked up: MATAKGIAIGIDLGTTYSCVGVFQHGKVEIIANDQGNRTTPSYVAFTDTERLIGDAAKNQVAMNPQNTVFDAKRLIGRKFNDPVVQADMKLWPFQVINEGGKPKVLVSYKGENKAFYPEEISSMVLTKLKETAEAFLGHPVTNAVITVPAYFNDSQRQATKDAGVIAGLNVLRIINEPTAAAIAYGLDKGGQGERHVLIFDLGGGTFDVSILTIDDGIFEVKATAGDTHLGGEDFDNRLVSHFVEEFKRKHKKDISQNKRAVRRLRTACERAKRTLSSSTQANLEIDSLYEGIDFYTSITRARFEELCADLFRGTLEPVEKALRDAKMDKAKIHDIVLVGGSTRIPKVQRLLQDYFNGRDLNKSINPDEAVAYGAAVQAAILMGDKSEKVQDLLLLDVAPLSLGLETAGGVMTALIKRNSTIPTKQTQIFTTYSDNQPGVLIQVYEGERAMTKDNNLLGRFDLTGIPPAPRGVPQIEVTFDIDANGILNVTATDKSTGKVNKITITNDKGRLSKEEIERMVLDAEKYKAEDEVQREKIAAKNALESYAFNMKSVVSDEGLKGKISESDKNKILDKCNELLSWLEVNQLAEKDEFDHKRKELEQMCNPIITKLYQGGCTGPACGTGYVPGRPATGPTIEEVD
UniProt P00492: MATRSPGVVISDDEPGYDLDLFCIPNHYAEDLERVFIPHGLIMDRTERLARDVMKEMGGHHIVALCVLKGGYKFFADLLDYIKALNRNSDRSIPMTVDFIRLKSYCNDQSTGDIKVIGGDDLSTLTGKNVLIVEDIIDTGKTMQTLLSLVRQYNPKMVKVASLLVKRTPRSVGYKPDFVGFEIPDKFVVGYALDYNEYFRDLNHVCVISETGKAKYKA
UniProt Q99714: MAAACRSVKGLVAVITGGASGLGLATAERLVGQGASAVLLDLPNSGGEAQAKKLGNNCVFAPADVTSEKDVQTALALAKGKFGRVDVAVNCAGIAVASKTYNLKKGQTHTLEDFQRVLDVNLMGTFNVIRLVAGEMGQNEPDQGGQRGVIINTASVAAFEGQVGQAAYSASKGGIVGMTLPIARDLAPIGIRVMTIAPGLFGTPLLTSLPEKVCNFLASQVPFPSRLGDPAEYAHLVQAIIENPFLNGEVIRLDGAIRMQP
UniProt P52597: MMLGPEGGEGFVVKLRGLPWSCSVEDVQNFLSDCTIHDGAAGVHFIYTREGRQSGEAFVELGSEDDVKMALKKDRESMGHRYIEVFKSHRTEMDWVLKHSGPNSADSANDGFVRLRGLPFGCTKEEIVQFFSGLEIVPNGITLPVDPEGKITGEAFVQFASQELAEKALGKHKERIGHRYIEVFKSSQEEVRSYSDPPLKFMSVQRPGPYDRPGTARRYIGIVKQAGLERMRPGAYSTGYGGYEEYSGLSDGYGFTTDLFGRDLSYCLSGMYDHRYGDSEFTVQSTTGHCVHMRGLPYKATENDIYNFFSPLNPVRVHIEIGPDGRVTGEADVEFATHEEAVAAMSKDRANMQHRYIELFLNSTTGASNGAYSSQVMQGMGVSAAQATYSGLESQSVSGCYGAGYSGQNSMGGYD

The targets below were run with C1=CC=C(C=C1)[C@H](COC2=CC3=C(C=C2)NC(=O)N3)NC(=O)C4=CC=CN(C4=O)CC5=CC(=C(C=C5)F)F (assay: log2 fold change, soluble protein after heating vs DMSO (PISA); higher = thermal stabilisation; K562 cells, 10 uM, 30 min; active = over 0.2 and 3.5 SD of the protein, either way, in both replicates (recomputed)).
Outline: (§1)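 For each measurement, 10 μM compound was applied for 30 min to K562 cells at 2×10^6 cells/mL. Aliquots were heated for 3 min across 48°C-58°C, pooled, and extracted in PBS with 0.5% NP-40 at 4°C; the supernatant after 21,000xg for 90 min was soluble protein. This was quantified by TMTpro 16plex LC-MS/MS with channel sums equalised, and thermal stability was reported relative to control samples from duplicates, on a log2 fold-change scale.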

Row | Target | log2 fold change
1 | ICE2 (UniProt Q659A1) | inactive: -0.008
2 | HMGN5 (UniProt P82970) | inactive: 0.026
3 | HTATSF1 (UniProt O43719) | inactive: -0.149
4 | HMGN5 (UniProt Q5JSK9) | inactive: -0.055
5 | HMGCR isoform 3 (UniProt P04035) | inactive: -0.011
6 | HSPA9 (UniProt P38646) | inactive: 0.012
7 | HSP90B1 (UniProt P14625) | inactive: 0.017
8 | HSPA14 (UniProt Q0VDF9) | inactive: -0.079
9 | HSPA13 (UniProt P48723) | inactive: 0.008
10 | HIST2H2AA3 (UniProt Q6FI13) | inactive: 0.193
11 | HMOX2 (UniProt P30519) | inactive: 0.024
12 | HSP90AA4P (UniProt Q58FG1) | inactive: -0.017
13 | HSPA4 (UniProt P34932) | inactive: -0.019
14 | HNRNPLL (UniProt Q8WVV9) | inactive: -0.105
15 | HYOU1, A0A494C039 | inactive: -0.057
16 | HSPD1 (UniProt P10809) | inactive: 0.005

Row | Target | log2 fold change
17 | HS1BP3 (UniProt Q53T59) | inactive: -0.046
18 | HMGCL (UniProt P35914) | inactive: -0.029
19 | HNRNPDL (UniProt O14979) | inactive: 0.046
20 | HMGB3 (UniProt O15347) | inactive: -0.005
21 | HSD17B12 (UniProt Q53GQ0) | inactive: 0.013
22 | HKDC1 (UniProt Q2TB90) | inactive: -0.015
23 | HIC2 (UniProt Q96JB3) | inactive: 0.163
24 | HK1 isoform 2 (UniProt P19367) | inactive: 0.001
25 | HLTF (UniProt Q14527) | inactive: 0.003
26 | HMGA1 (UniProt P17096) | inactive: 0.06
27 | HSPA1L (UniProt P34931) | inactive: -0.013
28 | HPRT1 (UniProt P00492) | inactive: -0.001
29 | HSD17B10 (UniProt Q99714) | inactive: -0.021
30 | HNRNPF (UniProt P52597) | inactive: -0.032
31 | HSPA8 (UniProt E9PN89) | inactive: 0
32 | HIBADH (UniProt P31937) | inactive: 0.033

What follows are targets tested with CC1=C(SC2=C1C(=N[C@H](C3=NN=C(N32)C)CC(=O)N)C4=CC=C(C=C4)Cl)C in the same assay as above.
Outline: as §1

Row | Target | log2 fold change
33 | ICE2 (UniProt Q659A1) | inactive: 0.122
34 | HMGN5 (UniProt P82970) | inactive: 0
35 | HTATSF1 (UniProt O43719) | inactive: 0.031
36 | HMGN5 (UniProt Q5JSK9) | inactive: 0.075
37 | HMGCR isoform 3 (UniProt P04035) | inactive: 0.034
38 | HSPA9 (UniProt P38646) | inactive: 0.017
39 | HSP90B1 (UniProt P14625) | inactive: 0.012
40 | HSPA14 (UniProt Q0VDF9) | inactive: -0.015
41 | HSPA13 (UniProt P48723) | inactive: 0.019
42 | HIST2H2AA3 (UniProt Q6FI13) | inactive: -0.246
43 | HMOX2 (UniProt P30519) | inactive: 0.035
44 | HSP90AA4P (UniProt Q58FG1) | inactive: 0.021
45 | HSPA4 (UniProt P34932) | inactive: 0.047
46 | HNRNPLL (UniProt Q8WVV9) | inactive: -0.067
47 | HYOU1, A0A494C039 | inactive: 0.103
48 | HSPD1 (UniProt P10809) | inactive: 0.006

Row | Target | log2 fold change
49 | HS1BP3 (UniProt Q53T59) | inactive: 0.087
50 | HMGCL (UniProt P35914) | inactive: 0.04
51 | HNRNPDL (UniProt O14979) | inactive: -0.12
52 | HMGB3 (UniProt O15347) | inactive: 0.022
53 | HSD17B12 (UniProt Q53GQ0) | inactive: 0.061
54 | HKDC1 (UniProt Q2TB90) | inactive: 0.056
55 | HIC2 (UniProt Q96JB3) | inactive: -0.053
56 | HK1 isoform 2 (UniProt P19367) | inactive: -0.008
57 | HLTF (UniProt Q14527) | inactive: 0.012
58 | HMGA1 (UniProt P17096) | inactive: -0.041
59 | HSPA1L (UniProt P34931) | inactive: -0.081
60 | HPRT1 (UniProt P00492) | inactive: 0.01
61 | HSD17B10 (UniProt Q99714) | inactive: 0.043
62 | HNRNPF (UniProt P52597) | inactive: -0.049
63 | HSPA8 (UniProt E9PN89) | inactive: 0.094
64 | HIBADH (UniProt P31937) | inactive: 0.002

The targets below were run with CC1=C2C(=CC=C1)N=C(N(C2=O)C3=CC=CC=C3C)CN4C=NC5=C(N=CN=C54)N in the same assay as above.
Outline: as §1

Row | Target | log2 fold change
65 | ICE2 (UniProt Q659A1) | inactive: 0.049
66 | HMGN5 (UniProt P82970) | inactive: 0.007
67 | HTATSF1 (UniProt O43719) | inactive: 0.105
68 | HMGN5 (UniProt Q5JSK9) | inactive: 0.291
69 | HMGCR isoform 3 (UniProt P04035) | inactive: 0.045
70 | HSPA9 (UniProt P38646) | inactive: 0
71 | HSP90B1 (UniProt P14625) | inactive: -0.009
72 | HSPA14 (UniProt Q0VDF9) | inactive: 0.056
73 | HSPA13 (UniProt P48723) | inactive: 0.034
74 | HIST2H2AA3 (UniProt Q6FI13) | inactive: -0.473
75 | HMOX2 (UniProt P30519) | inactive: 0.169
76 | HSP90AA4P (UniProt Q58FG1) | inactive: 0.005
77 | HSPA4 (UniProt P34932) | inactive: 0.005
78 | HNRNPLL (UniProt Q8WVV9) | inactive: 0.078
79 | HYOU1, A0A494C039 | inactive: -0.131
80 | HSPD1 (UniProt P10809) | inactive: -0.003

Row | Target | log2 fold change
81 | HS1BP3 (UniProt Q53T59) | inactive: -0.001
82 | HMGCL (UniProt P35914) | inactive: -0.08
83 | HNRNPDL (UniProt O14979) | inactive: -0.139
84 | HMGB3 (UniProt O15347) | inactive: -0.03
85 | HSD17B12 (UniProt Q53GQ0) | inactive: 0.066
86 | HKDC1 (UniProt Q2TB90) | inactive: 0.091
87 | HIC2 (UniProt Q96JB3) | inactive: -0.048
88 | HK1 isoform 2 (UniProt P19367) | inactive: 0.025
89 | HLTF (UniProt Q14527) | inactive: 0.062
90 | HMGA1 (UniProt P17096) | inactive: -0.092
91 | HSPA1L (UniProt P34931) | inactive: 0.219
92 | HPRT1 (UniProt P00492) | inactive: -0.032
93 | HSD17B10 (UniProt Q99714) | inactive: -0.017
94 | HNRNPF (UniProt P52597) | inactive: -0.019
95 | HSPA8 (UniProt E9PN89) | inactive: 0.123
96 | HIBADH (UniProt P31937) | inactive: 0.016
